Results reported in article PMC9613636.
These are yes or no findings as the source states them, for the method shown. Some binding calls cover weakened binding; strength is not graded here.

Sequences of proteins named here, by UniProt entry; tags and fusion partners are left off. Residues count along the entry.
UniProt Q86Y34, residues 21-549: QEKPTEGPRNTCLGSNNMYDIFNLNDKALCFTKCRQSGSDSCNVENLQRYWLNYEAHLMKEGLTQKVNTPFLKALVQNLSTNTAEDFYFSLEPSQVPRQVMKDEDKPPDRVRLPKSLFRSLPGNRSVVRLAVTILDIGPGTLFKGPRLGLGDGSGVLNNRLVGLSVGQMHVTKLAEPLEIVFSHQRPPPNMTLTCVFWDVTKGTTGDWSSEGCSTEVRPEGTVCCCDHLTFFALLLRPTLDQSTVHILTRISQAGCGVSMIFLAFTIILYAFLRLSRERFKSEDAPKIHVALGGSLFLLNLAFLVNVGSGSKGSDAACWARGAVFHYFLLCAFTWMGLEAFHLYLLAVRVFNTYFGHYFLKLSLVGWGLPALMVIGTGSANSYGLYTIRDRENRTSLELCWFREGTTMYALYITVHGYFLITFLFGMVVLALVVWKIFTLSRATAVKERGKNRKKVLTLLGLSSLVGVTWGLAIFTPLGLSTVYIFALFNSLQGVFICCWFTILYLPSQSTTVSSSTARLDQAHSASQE

Columns and labels:
[1] = molecular target: GPR97-TM7-EGFP expressed in FACS-sorted HEK-293T cells (human) (UniProt Q86Y34); test: flow cytometry on cells; FACS-based PR3-binding assay: HEK-293T transfectants (unsorted, or FACS-sorted by GFP level) incubated with purified PR3 5 μg/mL, 1 h, 4 °C; bound PR3 detected with anti-PR3 mAb; only the binder purified
[2] = molecular target: GPR97 expressed in HEK-293T cells (unsorted transfectants and co-expression experiments) (human) (UniProt Q86Y34); test: as above

binding [1]: binds
binding [2]: binds
B1: Human proteinase 3 (PR3), purified (enzyme, UniProt P24158 28-248)
chain: IVGGHEAQPHSRPYMASLQMRGNPGSHFCGGTLIHPSFVLTAAHCLRDIPQRLVNVVLGAHNVRTQEPTQQHFSVAQVFLNNYDAENKLNDVLLIQLSSPANLSASVATVQLPQQDQPVPHGTQCLAMGWGRVGAHDPPAQVLQELNVTVVTFFCRPHNICTFVPRRKAGICFGDSGGPLICDGIIQGIDSFVIWGCATRLFPDFFTRVALYVDWIRSTLR
